For 63 molecules, AC50 results are on record in PubChem BioAssay AID493014 (National Center for Advancing Translational Sciences (NCATS), 2011).

The structures appear in SMILES notation. The list shows a part of the results. The main result of the screen is listed elsewhere. These columns were measured beside it and carry no call. Compounds called inactive in the main read-out are mostly missing here. The note in brackets gives the kind of curve behind each potency; many fits are weak.

The nature of this test: qHTS Assay to Find Inhibitors of Chronic Active B-Cell Receptor Signaling. The following applies: ABC-DLBCL IkBa-CBG/CBR reporter, luminescence ratio (green luciferase fused to IkBa over red control in TMD8 lymphoma cells), 4 h. The essentials: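 Concentration-response series (up to 46 uM) were applied to TMD8 dual-reporter cells for 4 h at 37C with doxycycline. Green/red ratio, after filter-overlap correction, defined %Activity; red signal alone was normalised to basal cells and zero luminescence.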

The mark [1] stands for this setting: measured here: CBR red luminescence, cell number.
Where [2] appears, read: measured here: IkBa-CBG green luminescence.

For orientation: AC50 means the concentration giving half of the maximal activity seen. In the case of `Cc1ccccc1C(=O)O/N=C(\N)Cc1cccs1`, the AC50 under setting [1] is 3.16 µM [rising, full curve, poor fit].
Consider `COc1ccccc1N=c1oc2cc(O)ccc2cc1C(N)=O`, for which the concentration at half-maximal activity (AC50) under setting [1] is 2.51 µM [falling, partial curve].
For `CC(=O)c1cccc(NC(=O)COc2ccccc2)c1`, the AC50 under setting [1] was 6.51 µM [falling, single point].
`COc1cc(/C=N/NC(=S)NC(C)C)ccc1OCC(=O)Nc1c(C)cc(C)cc1C`: the AC50 under setting [1] was 4.11 µM [rising, full curve, poor fit].
On the same count and under the same terms, with `CCOC(=O)c1cccc(NC(=O)CSc2nnc(COc3ccccc3)n2CC)c1` the figure was 35.5 µM [falling, single point].
Turning to `Cc1ccc2nc(-c3ccc(SCC(=O)Nc4cc(C)on4)nc3)[nH]c2c1`, the AC50 under setting [1] was 10 µM [falling, partial curve, poor fit].
Still for that read-out and setting: with `O=C(N1CCN(Cc2ccc3c(c2)OCO3)CC1)C(Cl)(Cl)Cl` the figure was 1.58 µM [rising, partial curve]; with `CCOC(=O)N1CCC(NC(=O)c2cccc3c2C(=O)N(Cc2cccnc2)C3)CC1`, 29.1 µM [rising, single point]; with `O=C(c1cccc(Cl)c1)c1nn(-c2ccccc2)c(=O)cc1C(F)(F)F`, 15.8 µM [falling, single point].
On the same count and under the same terms, with `CN1C(=O)/C(=C/c2ccccc2OCc2ccc(C(=O)O)cc2)NC1=S` the figure was 35.5 µM [falling, single point]; with `CCN1CCN(Cc2c(OC)ccc3ccccc23)CC1`, 5.17 µM [falling, full curve, poor fit]; with `NC(=O)NC(CC(=O)OCC(=O)NC(=O)NCc1ccco1)c1ccc(Cl)cc1` (configuration not stated), 6.31 µM [falling, partial curve, poor fit].
Same read-out and setting: with `O=C(C1CCN(S(=O)(=O)N2CCC3(CC2)OCCO3)CC1)N1CCOCC1` the figure was 0.58 µM [falling, full curve, poor fit].
Consider `COc1ccc(-c2csc(NC(=O)c3ccc(S(C)(=O)=O)cc3)n2)cc1`, for which the AC50 under setting [1] was 6.31 µM [rising, full curve, poor fit].
For `CCN1C(=O)c2cccc3c(S(=O)(=O)NCCc4c[nH]c5ccccc45)ccc1c23`, the half-maximal activity concentration (AC50) is, setting by setting: under setting [1], 29.1 µM [falling, single point]; under setting [2], 29.1 µM [rising, partial curve, poor fit].
Consider `CSc1nc(N(C)NC(=O)c2ccc(Cl)cc2)c2ccccc2n1`, for which the AC50 is, setting by setting: under setting [1], 8.2 µM [rising, partial curve]; under setting [2], 6.51 µM [falling, partial curve].
As for `COc1ccccc1NC(=S)NCc1ccccc1`, the AC50 under setting [1] was 6.31 µM [rising, full curve].
On to `O=C(NC(=S)Nc1nc(-c2ccc(Br)cc2)cs1)c1cccnc1`, for which, under setting [1], the AC50 was 0.891 µM [rising, full curve].
The same measure, in the same setting: with `COc1cc([C@H]2OC[C@H]3[C@@H]2CO[C@@H]3c2ccc(O[C@H]3O[C@H](CO)[C@@H](O)[C@H](O)[C@H]3O)c(OC)c2)ccc1O[C@@H]1O[C@H](CO)[C@@H](O)[C@H](O)[C@H]1O` the figure was 29.1 µM [rising, single point]; with `CC(=O)Nc1ccc(SCC(=O)NCC2(N3CCCCC3)CCCCC2)cc1`, 16.4 µM [rising, partial curve]; with `Clc1ncccc1-c1nc2ccccc2s1`, 14.1 µM [rising, single point].
Turning to `Cc1ccc(OCC(=O)N2CCN(S(C)(=O)=O)CC2)cc1`, the AC50 under setting [1] was 1.78 µM [rising, full curve].
The same measure, in the same setting: with `CNC(=O)c1c(NC(=O)CCS(=O)(=O)c2ccc(C)cc2)sc2c1CCN(C(=O)OC)C2` the figure was 29.1 µM [falling, single point].
`CC(C)(C)C(=O)COC(=O)c1ccccc1O`: under setting [1], the AC50 was 0.231 µM [rising, full curve, poor fit].
As to `Cc1nn2c(NC(C)C)c3c(nc2c1-c1ccccc1)CCC3`, the AC50 under setting [1] is 35.5 µM [falling, single point].
For the molecule `COc1ccc(S(=O)(=O)N2CCc3ccccc32)cc1C(=O)Nc1ccc(C(N)=O)cc1`, under setting [1], the AC50 was 29.1 µM [rising, single point].
Still for that read-out and setting: with `CCN(CC)C(=O)COC(=O)C1=NN(c2cc(C)ccc2C)C(=O)CC1` the figure was 8.91 µM [rising, single point]; with `COc1ccccc1-c1nnc(Sc2nc([N+](=O)[O-])nn2C)o1`, 9.2 µM [falling, partial curve, poor fit]; with `O=C(COc1ccc(Cl)cc1Cl)NC(=S)Nc1ccccc1C(=O)O`, 7.94 µM [falling, partial curve, poor fit].
As to `CCOCCCNC(=O)C1CCN(Cc2ccc(OCc3ccccc3)c(OC)c2)CC1`, the AC50 under setting [1] is 0.501 µM [rising, full curve, poor fit].
On to `CCOC(=O)c1cc(-c2ccc(F)cc2)n(CCC(=O)Nc2cc(OC)cc(OC)c2)c1C`, for which the AC50 under setting [1] was 0.631 µM [rising, full curve].
Same read-out and setting: then `CC(O)[C@H]1CNCCN1CCc1cc(C(F)(F)F)cc(C(F)(F)F)c1` (some centres not stated), with 23.1 µM [falling, single point]; and `CCN(c1ccccc1)S(=O)(=O)c1ccc(OC)c(NC(=O)c2cccs2)c1`, with 25.1 µM [falling, single point].
Take `O=C(N/N=C/c1ccc2c(c1)OCO2)c1cccnc1`: under setting [1], the AC50 is 15.8 µM [falling, partial curve, poor fit].
With `CC1Cc2ccccc2N1C(=S)Nc1cccc(S(=O)(=O)N(C)C)c1` (configuration not stated), the AC50 under setting [1] was 15.8 µM [rising, partial curve, poor fit].
Still for that read-out and setting: with `Cc1ccsc1C1C(C#N)=C(N)OC2=C1C(=O)CC(C)(C)C2` (configuration not stated) the figure was 12.6 µM [falling, partial curve].
For the molecule `COc1cccc(-c2csc(N3CCN(CC(=O)NNC(=O)c4ccc(Br)cc4)CC3)n2)c1`, the concentration at half-maximal activity (AC50) under setting [1] is 18.4 µM [falling, partial curve, poor fit].
`COc1ccc(C(=O)NCC2(c3ccccc3)CCOCC2)cc1[N+](=O)[O-]`: under setting [1], the AC50 is 6.51 µM [rising, single point].
For `Cc1cc(C(=O)CCl)c(C)n1-c1c(C)n(C)n(-c2ccccc2)c1=O`, the AC50 under setting [1] was 11.2 µM [falling, partial curve].
In the case of `COC(=O)C(C)Sc1ccc2nnc(-c3ccccc3)n2n1` (configuration not stated), the AC50 under setting [1] was 35.5 µM [falling, single point].
Regarding `Cc1nc([N+](=O)[O-])c(Br)n1Cc1ccccc1`, under setting [1], the AC50 was 6.31 µM [falling, partial curve].
Take `CCCNC(=O)CSc1nnc(-c2ccc(F)cc2)o1`: under setting [1], the half-maximal activity concentration (AC50) was 11.2 µM [rising, single point].
The same measure, in the same setting: with `Cc1ccc(SCCNC(=O)/C=C/c2cccc([N+](=O)[O-])c2)cc1` the figure was 25.9 µM [rising, single point]; with `Cc1cc(N/N=C/c2ccccc2Br)nc2ccccc12`, 0.411 µM [rising, full curve]; with `CN1CCN(C2=C(Cl)C(=O)N(c3ccc(Cl)cc3)C2=O)CC1`, 11.2 µM [falling, partial curve, poor fit].
On the same count and under the same terms, then `C/C(=N\NC(=O)c1ccco1)c1ccc(-c2ccccc2)cc1`, with 0.794 µM [rising, full curve]; and `COc1ccc(/C=C/C(=O)Nc2ccccc2F)cc1S(=O)(=O)N1CCOCC1`, with 2.06 µM [falling, partial curve].
Still for that read-out and setting: then `CC(C)N(CC(N)=O)c1ncnc2sc(-c3ccccc3)cc12`, with 6.31 µM [falling, single point]; and `CCSc1nnc(-c2cccs2)o1`, with 11.6 µM [rising, single point]; and `O=c1cc(CO)oc(CN2CCN(c3ccccc3)CC2)c1O`, with 12.6 µM [rising, partial curve, poor fit].
Regarding `O=C(O)c1ccccc1NC(=O)c1cc2ccccc2oc1=O`, the AC50 under setting [1] is 2.82 µM [falling, full curve].
The same measure, in the same setting: then `COc1ccc(N2CCN(Cc3nc4c(c(=O)n(C)c(=O)n4C)n3C(C)C)CC2)cc1`, with 20 µM [rising, single point].
On to `CCOC(=O)c1sc2ncn(/N=C/c3cccnc3)c(=O)c2c1C`, for which the AC50 under setting [1] is 29.1 µM [rising, single point].
Consider `C/C(=N\NC(=O)c1ccc(CSc2nncn2C)cc1)c1ccc(Cl)cc1`, for which the AC50 under setting [1] was 20.6 µM [rising, single point].
With `C[C@H](CO)N1C[C@H](C)[C@@H](CN(C)C(=O)Nc2ccccc2)Oc2ccc(NC(=O)C3CCCCC3)cc2C1=O`, the AC50 under setting [1] is 18.4 µM [rising, partial curve, poor fit].
With `CC(=O)Nc1ccc(N=Cc2c(O)c(C(=O)Nc3ccccc3)cc3ccccc23)cc1`, under setting [1], the AC50 is 1.26 µM [falling, full curve].
On to `Cc1cc(C(=O)NNC(=O)c2sccc2C)c(C)o1`, for which, under setting [1], the AC50 was 16.4 µM [falling, partial curve].
As for `CC(C)n1cc(NC(=O)COc2ccccc2Cl)cn1`, under setting [1], the AC50 was 2.51 µM [rising, full curve, poor fit].
For the molecule `Cc1cccc(NC(=S)NC2CCCC2)n1`, the AC50 is 10 µM [rising, partial curve, poor fit] under setting [1] and 15.8 µM [falling, partial curve, poor fit] under setting [2].
As for `CCCN(CCC)C(=O)CC(c1ccccc1)c1cc(C)ccc1O` (configuration not stated), under setting [1], the AC50 was 32.6 µM [falling, single point].
Turning to `CCn1c(=O)cc(SCC(=O)Nc2ccc(OC)c(OC)c2)c2ccccc21`, the AC50 under setting [1] is 20.6 µM [falling, single point].
For the molecule `O=C1C(=C2CCCCC2)SC(=S)N1Cc1ccco1`, the AC50 reads like this: under setting [1], 35.5 µM [rising, single point]; under setting [2], 35.5 µM [falling, single point].
With `CN(C)CCC(c1ccc(Cl)cc1)c1ccccn1` (configuration not stated), the AC50 under setting [1] is 1.84 µM [falling, partial curve].
